Patent publication US20160280736A1, “CYCLIC PEPTIDE COMPOUND, AND PREPARATION METHOD, PHARMACEUTICAL COMPOSITION AND USE THEREOF” (HANGZHOU GUANYU BIO-MEDICAL CO., LTD., priority 2013, published 2016)
The structures given here were assigned with low confidence; some may be wrong.

By UniProt entry, the sequences of proteins in these tests, tags left out.
UniProt Q8WUI4, whole entry: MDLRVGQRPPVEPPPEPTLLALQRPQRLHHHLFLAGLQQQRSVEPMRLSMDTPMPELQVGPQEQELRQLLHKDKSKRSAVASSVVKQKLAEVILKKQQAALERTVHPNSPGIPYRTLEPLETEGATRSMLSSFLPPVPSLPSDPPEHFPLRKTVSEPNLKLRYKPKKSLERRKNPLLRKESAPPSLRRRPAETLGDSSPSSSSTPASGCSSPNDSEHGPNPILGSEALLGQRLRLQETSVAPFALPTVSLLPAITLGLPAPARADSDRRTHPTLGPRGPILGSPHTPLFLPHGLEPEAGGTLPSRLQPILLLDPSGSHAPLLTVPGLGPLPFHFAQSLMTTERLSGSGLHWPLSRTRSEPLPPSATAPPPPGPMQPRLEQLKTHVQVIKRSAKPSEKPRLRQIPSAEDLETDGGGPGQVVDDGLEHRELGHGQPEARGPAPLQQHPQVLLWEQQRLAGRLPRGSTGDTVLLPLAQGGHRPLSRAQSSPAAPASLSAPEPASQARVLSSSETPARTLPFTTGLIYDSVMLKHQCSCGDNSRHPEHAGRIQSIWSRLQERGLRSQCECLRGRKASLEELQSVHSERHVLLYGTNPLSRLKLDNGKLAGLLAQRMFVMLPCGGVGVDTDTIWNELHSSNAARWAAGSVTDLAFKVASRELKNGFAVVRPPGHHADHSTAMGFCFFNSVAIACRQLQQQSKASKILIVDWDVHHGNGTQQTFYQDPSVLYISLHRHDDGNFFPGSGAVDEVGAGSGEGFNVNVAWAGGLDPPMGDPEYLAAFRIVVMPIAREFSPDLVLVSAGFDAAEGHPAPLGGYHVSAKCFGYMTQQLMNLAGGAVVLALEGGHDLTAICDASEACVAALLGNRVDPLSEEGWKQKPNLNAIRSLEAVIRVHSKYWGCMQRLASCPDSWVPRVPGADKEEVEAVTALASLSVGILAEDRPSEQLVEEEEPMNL

Target: HDAC7 (Homo sapiens, UniProt Q8WUI4)
Assay: HDAC biochemical activity measurement (fluorescent substrate deacetylation)
Settings: HDAC7 enzyme, 37°, 30 minutes

| IC50 (μM) HDAC7 | Compound |
| --- | --- |
| no activity | C/C=C1\NC(=O)c2ccc(F)c(n2)CNC(=O)C[C@@H](/C=C/CCSC(=O)CCCCCCC)OC(=O)[C@H](C)NC1=O |
| no activity | C/C=C1\NC(=O)c2nc(ccc2F)CNC(=O)C[C@@H](/C=C/CCSC(C)=O)OC(=O)[C@H](C)NC1=O |
| no activity | C/C=C1\NC(=O)c2cc(C)cc(n2)CNC(=O)C[C@@H](/C=C/CCSC(C)=O)OC(=O)[C@H](Cc2ccccc2)NC1=O |
